PubChem BioAssay AID504791 – Drosophila RNAi Screening Center | 2011
The deposit covers about 23,000 reagents; below is a random part of those with a known target gene and a result. Of all reagents, 199 (0.86%) are marked active. 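Plate-scaled ratios behind the calls are not deposited; printed light signals are raw; many rows marked increased or decreased are still called inactive.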 Names joined by + are all predicted targets of the reagent. Not all columns of the deposit are shown.

Screen: 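Genes whose knock-down strengthens or weakens small-RNA reporter silencing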 (primary screen)
System: Drosophila S2-derived reporter cells
Knock-down reagent: long dsRNA against Drosophila genes, about 150-250 ng dsRNA per well (siRNA assay); about 80-120 ng (miRNA assay)
Timing: about 5 days (siRNA assay); about 4 days (miRNA assay)
Treatment: copper sulfate induction of reporters: 25 µM (siRNA assay); 200 mM stated (miRNA assay), 1-2 days before reading
Measurement: 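Per-well ratio of Renilla over firefly light, expressed relative to that plate's average ratio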
Direction: siRNA reporter hit score: higher = 3 marks a strong hit with raised ratio; -3 a strong hit with lowered ratio
Active means: 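First-pass picks had plate-scaled ratios over 1.5 for the siRNA assay, over 1.6 for the miRNA assay, or under 0.6; two distinct dsRNAs had to score alike on retest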

target gene | DRSC id | siRNA reporter hit score | stable siRNA reporter change | miRNA reporter change | stable assay Renilla, run 1 (luminescence) | Outcome
Ranbp21 | DRSC19447 | – | – | – | 9457 | inactive
Corp | DRSC17771 | – | – | – | 7931 | inactive
Hsp70Aa + Hsp70Ab | DRSC21246 | – | – | – | 6243 | inactive
Cpn | DRSC16613 | – | – | – | 8501 | inactive
Cpn | DRSC23835 | – | – | reporter ratio raised past the hit cutoff | – | inactive
Taf5 | DRSC07562 | – | – | – | 6838 | inactive
Ugt49B1 | DRSC04461 | – | – | – | 6447 | inactive
CG13894 | DRSC08364 | – | reporter ratio raised past the hit cutoff | – | 4603 | inactive
CG13894 | DRSC23205 | – | – | – | 4615 | inactive
KdelR | DRSC03353 | – | – | – | 23310 | inactive
Rbf2 | DRSC16816 | – | – | – | 7597 | inactive
CG15773 | DRSC18079 | – | – | – | 6514 | inactive
RpL23A | DRSC08694 | – | – | – | 10272 | inactive
RpL23A | DRSC22035 | – | – | – | 8361 | inactive
CG10931 | DRSC06015 | – | – | – | 5575 | inactive
CG34135 + Nasp | DRSC16397 | – | – | – | 6552 | inactive
Ppm1 | DRSC08260 | – | – | – | 7026 | inactive
mRpL28 | DRSC02724 | – | – | – | 6099 | inactive
Nep6 | DRSC19877 | – | – | – | 8715 | inactive
spi | DRSC03618 | – | – | – | 7102 | inactive
CG46339 | DRSC14136 | – | – | – | 8280 | inactive
CG3502 | DRSC04381 | – | – | – | 39664 | inactive
Deaf1 | DRSC11143 | – | – | – | 5943 | inactive
Deaf1 | DRSC22786 | – | reporter ratio raised past the hit cutoff | reporter ratio raised past the hit cutoff | 4955 | active
Smug | DRSC15762 | – | – | – | 7155 | inactive
CG4570 | DRSC15602 | – | – | – | 6656 | inactive
CG15891 + CG15892 | DRSC18095 | – | – | – | 5017 | inactive
CG15891 + CG15892 | DRSC18096 | – | – | – | 5076 | inactive
Xport-A + Xport-B | DRSC15586 | – | – | – | 8695 | inactive
CG5070 | DRSC19932 | – | – | – | 5540 | inactive
CG7730 | DRSC10909 | – | – | – | 6954 | inactive
soti | DRSC16432 | – | – | – | 8970 | inactive
Gycbeta100B | DRSC14039 | – | – | – | 6435 | inactive
Gycbeta100B | DRSC14040 | – | – | – | 8115 | inactive
Gycbeta100B | DRSC16691 | – | – | – | 7680 | inactive
slmo + CG34179 | DRSC03143 | – | – | reporter ratio raised past the hit cutoff | 3.11e5 | inactive
Boh2 | DRSC02777 | – | – | – | 6696 | inactive
Gs1 | DRSC00753 | – | – | – | 11201 | inactive
CG14400 | DRSC02384 | – | – | – | 8197 | inactive
Rpt6 | DRSC20571 | – | – | – | 6851 | inactive
Socs44A | DRSC06828 | – | – | – | 7170 | inactive
Hibch | DRSC15705 | – | – | – | 7028 | inactive
Sgf11 | DRSC09987 | – | – | – | 7270 | inactive
CG5770 | DRSC06954 | – | – | – | 9765 | inactive
l(3)07882 | DRSC15882 | – | – | – | 7603 | inactive
CG2604 | DRSC12313 | – | – | – | 6982 | inactive
Myo10A | DRSC19834 | – | – | – | 6686 | inactive
Myo10A | DRSC19837 | – | – | – | 5323 | inactive
Parg | DRSC18696 | – | – | – | 7095 | inactive
fmt | DRSC09717 | – | – | – | 8726 | inactive
Klc | DRSC11203 | – | – | – | 8011 | inactive
CG3306 | DRSC10357 | – | – | – | 7630 | inactive
CG17005 | DRSC02556 | – | – | – | 7556 | inactive
CG3107 | DRSC04888 | – | – | – | 74857 | inactive
robo1 | DRSC04712 | – | – | – | 6342 | inactive
CG11885 | DRSC00329 | – | reporter ratio raised past the hit cutoff | – | 3780 | inactive
CG8306 | DRSC07141 | – | – | – | 8718 | inactive
beag | DRSC15296 | – | – | – | 8761 | inactive
Atg9 | DRSC06848 | – | – | – | 8966 | inactive
Sox14 | DRSC04656 | – | – | – | 5376 | inactive
Sox14 | DRSC27025 | – | – | reporter ratio lowered past the hit cutoff | – | active
Rab11 | DRSC16809 | – | – | – | 8575 | inactive
CG7320 | DRSC10810 | – | – | – | 6479 | inactive
CG14837 | DRSC10207 | – | – | – | 7372 | inactive
ntc | DRSC08166 | – | – | – | 8302 | inactive
CG16756 | DRSC18115 | – | – | – | 6071 | inactive
CG13558 | DRSC04196 | – | – | – | 6118 | inactive
CG1542 | DRSC15035 | – | – | – | 8573 | inactive
CG33012 | DRSC06287 | – | – | – | 6878 | inactive
CG33012 | DRSC06288 | – | – | – | 6914 | inactive
CG8509 | DRSC20109 | – | – | – | 7920 | inactive
CG42540 | DRSC08327 | – | – | – | 5732 | inactive
CG42540 | DRSC08328 | – | – | – | 6699 | inactive
CG42540 | DRSC08593 | – | – | – | 4655 | inactive
CG42540 | DRSC23011 | – | – | – | 2847 | inactive
Diap1 | DRSC11404 | 3 | – | – | 4503 | inactive
CG30344 | DRSC22510 | – | – | – | 3599 | inactive
CG11970 | DRSC14157 | – | – | – | 8920 | inactive
CG31612 | DRSC03697 | – | – | – | 4807 | inactive
CG31612 | DRSC03698 | – | – | – | 7106 | inactive
CG33257 | DRSC09917 | – | – | – | 7931 | inactive
Pdk1 | DRSC08682 | – | – | reporter ratio lowered past the hit cutoff | 5131 | inactive
Pdk1 | DRSC27069 | – | – | reporter ratio lowered past the hit cutoff | – | inactive
CG15764 | DRSC18070 | – | – | – | 5827 | inactive
CG6044 | DRSC04522 | – | – | – | 6022 | inactive
Tmtc4 | DRSC15702 | – | – | – | 7088 | inactive
CG6574 | DRSC16070 | – | – | – | 7559 | inactive
spn-E | DRSC17064 | – | – | – | 7612 | inactive
CG2187 | DRSC15425 | – | – | – | 7361 | inactive
Irbp | DRSC17007 | – | – | – | 6094 | inactive
Irbp | DRSC23317 | – | – | – | 4595 | inactive
msopa | DRSC11895 | – | – | – | 5636 | inactive
msopa | DRSC23240 | – | – | – | 4475 | inactive
Ir94c | DRSC13539 | – | – | – | 4907 | inactive
Cyfip | DRSC15679 | – | – | – | 7410 | inactive
CG3655 | DRSC17676 | – | – | – | 8359 | inactive
CG3655 | DRSC18181 | – | – | – | 6519 | inactive
CG3655 | DRSC18477 | – | – | – | 6264 | inactive
CG3655 | DRSC22688 | – | – | – | 5327 | inactive
Setd3 | DRSC17840 | – | – | – | 5124 | inactive
Setd3 | DRSC18269 | – | – | – | 5376 | inactive
CG15403 | DRSC00417 | – | – | – | 7003 | inactive
Ir76a | DRSC10987 | – | – | – | 7807 | inactive
CG13965 | DRSC02307 | – | – | – | 6970 | inactive
Ir10a | DRSC18891 | – | – | – | 5862 | inactive
Ir10a | DRSC19478 | – | – | – | 5960 | inactive
Ir10a | DRSC19479 | – | – | – | 5707 | inactive
